Drawing on the supplement of paper PMC12819154, “High-throughput peptide-centric local stability assay extends protein–ligand identification to membrane proteins, tissues and bacteria” (Nature Structural & Molecular Biology, 2025), this text covers log2 fold change for 28 targets.

Protein sequences, listed by entry. Tags and fused reporters are not part of them. Lines headed by an entry give the natural chain unless they say otherwise; changes in a name come on top.
UniProt O14730: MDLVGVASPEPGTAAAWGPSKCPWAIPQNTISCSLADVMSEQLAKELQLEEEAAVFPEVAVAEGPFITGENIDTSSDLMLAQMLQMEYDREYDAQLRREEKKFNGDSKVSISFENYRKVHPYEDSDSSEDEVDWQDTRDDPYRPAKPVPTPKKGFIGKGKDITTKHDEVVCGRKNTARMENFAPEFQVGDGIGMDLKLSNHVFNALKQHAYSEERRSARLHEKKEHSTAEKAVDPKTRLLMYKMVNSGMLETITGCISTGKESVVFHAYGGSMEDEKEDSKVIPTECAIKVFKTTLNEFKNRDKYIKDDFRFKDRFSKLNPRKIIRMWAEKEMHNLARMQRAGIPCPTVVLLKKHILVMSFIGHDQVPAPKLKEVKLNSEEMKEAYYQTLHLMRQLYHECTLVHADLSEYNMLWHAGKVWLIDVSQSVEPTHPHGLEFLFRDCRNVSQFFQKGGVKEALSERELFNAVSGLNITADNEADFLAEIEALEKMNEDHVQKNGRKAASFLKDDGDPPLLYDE
UniProt O14562: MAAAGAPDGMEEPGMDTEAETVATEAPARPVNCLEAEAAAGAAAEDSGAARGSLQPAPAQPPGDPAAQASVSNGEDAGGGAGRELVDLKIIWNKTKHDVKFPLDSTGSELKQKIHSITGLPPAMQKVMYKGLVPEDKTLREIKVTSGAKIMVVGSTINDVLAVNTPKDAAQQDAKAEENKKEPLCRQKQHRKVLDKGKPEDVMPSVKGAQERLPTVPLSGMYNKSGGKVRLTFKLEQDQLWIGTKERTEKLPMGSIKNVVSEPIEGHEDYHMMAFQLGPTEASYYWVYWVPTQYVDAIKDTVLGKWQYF
UniProt O14604: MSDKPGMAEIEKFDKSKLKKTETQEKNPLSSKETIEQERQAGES
UniProt O14763, whole entry: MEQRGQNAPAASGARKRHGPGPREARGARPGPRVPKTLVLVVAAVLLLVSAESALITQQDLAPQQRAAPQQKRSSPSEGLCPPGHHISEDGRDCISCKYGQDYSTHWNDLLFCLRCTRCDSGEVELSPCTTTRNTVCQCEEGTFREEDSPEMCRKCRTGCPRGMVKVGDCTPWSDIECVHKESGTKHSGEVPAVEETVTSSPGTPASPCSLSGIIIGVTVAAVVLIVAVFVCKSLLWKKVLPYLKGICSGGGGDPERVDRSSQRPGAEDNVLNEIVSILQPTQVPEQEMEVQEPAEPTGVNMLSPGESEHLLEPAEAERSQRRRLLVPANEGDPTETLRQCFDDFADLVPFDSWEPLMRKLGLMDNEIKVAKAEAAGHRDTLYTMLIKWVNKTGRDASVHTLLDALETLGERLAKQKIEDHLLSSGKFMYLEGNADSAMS
UniProt O00193: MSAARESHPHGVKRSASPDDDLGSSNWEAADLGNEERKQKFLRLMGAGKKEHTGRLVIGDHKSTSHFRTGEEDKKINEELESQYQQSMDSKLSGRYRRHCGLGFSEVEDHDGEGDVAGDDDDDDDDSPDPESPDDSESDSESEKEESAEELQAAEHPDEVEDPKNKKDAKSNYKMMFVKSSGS
UniProt A8MPS7: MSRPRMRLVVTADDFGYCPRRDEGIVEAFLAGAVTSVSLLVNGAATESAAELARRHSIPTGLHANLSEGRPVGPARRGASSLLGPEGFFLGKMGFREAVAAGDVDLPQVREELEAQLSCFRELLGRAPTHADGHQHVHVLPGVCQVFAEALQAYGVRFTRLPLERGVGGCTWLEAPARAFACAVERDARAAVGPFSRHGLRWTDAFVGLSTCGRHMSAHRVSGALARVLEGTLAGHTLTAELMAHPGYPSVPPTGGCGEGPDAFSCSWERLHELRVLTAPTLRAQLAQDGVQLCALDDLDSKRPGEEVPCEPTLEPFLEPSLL
UniProt A8MQ14: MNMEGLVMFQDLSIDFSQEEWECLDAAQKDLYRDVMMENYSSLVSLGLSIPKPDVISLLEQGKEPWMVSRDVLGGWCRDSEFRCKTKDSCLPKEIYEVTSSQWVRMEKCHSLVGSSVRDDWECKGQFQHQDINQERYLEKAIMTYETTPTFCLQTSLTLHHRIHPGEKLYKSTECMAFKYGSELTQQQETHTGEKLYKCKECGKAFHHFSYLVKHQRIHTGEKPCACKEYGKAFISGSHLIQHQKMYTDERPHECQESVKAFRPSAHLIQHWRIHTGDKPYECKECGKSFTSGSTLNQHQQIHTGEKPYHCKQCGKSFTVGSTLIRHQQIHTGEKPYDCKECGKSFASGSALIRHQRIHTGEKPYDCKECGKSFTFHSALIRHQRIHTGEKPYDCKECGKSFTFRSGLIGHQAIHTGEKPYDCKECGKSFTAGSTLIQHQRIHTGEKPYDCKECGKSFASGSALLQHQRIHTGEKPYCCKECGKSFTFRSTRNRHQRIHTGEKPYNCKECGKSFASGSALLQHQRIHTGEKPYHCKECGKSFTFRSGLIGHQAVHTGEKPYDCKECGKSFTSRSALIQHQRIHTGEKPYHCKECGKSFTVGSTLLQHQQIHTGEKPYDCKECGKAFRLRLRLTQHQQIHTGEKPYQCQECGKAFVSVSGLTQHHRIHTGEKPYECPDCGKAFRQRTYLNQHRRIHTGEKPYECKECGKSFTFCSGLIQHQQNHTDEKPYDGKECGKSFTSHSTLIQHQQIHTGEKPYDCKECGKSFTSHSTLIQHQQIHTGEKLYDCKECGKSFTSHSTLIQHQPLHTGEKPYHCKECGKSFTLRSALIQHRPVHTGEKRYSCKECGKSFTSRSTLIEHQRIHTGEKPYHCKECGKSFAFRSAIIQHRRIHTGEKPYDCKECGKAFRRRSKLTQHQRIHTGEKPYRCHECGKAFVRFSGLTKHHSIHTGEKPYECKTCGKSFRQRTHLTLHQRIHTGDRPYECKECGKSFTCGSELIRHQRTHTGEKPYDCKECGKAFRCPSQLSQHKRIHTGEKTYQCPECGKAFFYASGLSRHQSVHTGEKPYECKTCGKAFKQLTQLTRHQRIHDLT
UniProt O00522: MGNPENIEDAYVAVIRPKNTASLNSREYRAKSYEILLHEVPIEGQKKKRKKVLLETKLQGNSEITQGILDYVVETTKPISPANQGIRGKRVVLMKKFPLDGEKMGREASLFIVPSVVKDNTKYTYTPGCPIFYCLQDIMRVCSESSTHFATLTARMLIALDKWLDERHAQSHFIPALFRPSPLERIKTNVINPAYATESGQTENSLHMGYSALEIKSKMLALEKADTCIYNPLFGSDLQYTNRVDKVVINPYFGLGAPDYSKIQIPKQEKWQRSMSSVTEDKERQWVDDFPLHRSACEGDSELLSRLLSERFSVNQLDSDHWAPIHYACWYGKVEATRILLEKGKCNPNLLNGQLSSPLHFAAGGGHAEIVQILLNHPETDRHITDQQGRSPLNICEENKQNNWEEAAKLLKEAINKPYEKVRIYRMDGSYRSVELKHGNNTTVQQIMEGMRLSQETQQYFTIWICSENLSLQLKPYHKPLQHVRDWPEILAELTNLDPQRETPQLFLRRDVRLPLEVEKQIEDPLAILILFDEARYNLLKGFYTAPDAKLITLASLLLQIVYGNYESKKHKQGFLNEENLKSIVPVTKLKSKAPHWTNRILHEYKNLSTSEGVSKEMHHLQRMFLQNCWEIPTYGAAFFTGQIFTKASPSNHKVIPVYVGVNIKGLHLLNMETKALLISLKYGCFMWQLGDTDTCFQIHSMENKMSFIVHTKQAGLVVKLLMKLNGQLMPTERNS
UniProt C4AMC7: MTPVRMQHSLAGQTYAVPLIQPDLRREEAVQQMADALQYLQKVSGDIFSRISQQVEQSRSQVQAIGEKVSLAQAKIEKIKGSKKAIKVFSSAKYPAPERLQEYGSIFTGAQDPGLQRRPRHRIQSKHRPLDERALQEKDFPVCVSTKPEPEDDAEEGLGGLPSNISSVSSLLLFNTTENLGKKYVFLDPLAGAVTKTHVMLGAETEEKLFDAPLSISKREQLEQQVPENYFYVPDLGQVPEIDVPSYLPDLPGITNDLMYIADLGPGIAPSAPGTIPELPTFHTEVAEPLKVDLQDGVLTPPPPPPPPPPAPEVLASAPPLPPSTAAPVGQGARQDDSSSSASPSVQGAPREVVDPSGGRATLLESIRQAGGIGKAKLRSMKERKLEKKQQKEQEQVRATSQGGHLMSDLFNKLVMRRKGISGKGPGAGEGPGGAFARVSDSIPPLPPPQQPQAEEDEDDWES
UniProt O00232: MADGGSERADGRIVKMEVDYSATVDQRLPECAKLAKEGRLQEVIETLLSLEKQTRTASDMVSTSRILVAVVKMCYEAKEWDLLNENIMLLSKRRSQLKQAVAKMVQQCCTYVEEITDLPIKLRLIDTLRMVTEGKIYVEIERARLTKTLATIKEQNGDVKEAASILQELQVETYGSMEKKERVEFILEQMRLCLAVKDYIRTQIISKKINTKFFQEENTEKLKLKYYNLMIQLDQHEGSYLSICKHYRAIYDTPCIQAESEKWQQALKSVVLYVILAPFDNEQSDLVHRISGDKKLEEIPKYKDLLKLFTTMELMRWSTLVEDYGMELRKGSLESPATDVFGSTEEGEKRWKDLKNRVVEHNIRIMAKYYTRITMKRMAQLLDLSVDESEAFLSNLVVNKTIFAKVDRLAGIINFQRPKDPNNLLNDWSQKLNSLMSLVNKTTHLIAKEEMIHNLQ
UniProt O00483, whole entry: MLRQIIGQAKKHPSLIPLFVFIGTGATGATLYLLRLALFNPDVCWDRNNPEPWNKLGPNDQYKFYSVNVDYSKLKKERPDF
UniProt O00400: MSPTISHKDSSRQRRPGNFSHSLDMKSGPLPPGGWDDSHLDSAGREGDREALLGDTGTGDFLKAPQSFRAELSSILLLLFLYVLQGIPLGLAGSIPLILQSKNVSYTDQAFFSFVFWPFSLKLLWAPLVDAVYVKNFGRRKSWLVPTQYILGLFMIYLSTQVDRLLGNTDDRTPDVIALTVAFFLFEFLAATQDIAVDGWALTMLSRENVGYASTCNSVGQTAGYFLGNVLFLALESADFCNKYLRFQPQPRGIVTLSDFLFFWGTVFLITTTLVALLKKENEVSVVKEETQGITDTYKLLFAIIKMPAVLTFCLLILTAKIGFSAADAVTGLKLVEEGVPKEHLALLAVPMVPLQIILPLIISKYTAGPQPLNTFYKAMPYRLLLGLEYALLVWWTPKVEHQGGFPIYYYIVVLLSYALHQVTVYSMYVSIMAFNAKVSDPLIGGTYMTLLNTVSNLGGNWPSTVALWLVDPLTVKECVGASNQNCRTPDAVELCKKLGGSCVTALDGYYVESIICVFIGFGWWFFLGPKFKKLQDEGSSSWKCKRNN
UniProt O15049: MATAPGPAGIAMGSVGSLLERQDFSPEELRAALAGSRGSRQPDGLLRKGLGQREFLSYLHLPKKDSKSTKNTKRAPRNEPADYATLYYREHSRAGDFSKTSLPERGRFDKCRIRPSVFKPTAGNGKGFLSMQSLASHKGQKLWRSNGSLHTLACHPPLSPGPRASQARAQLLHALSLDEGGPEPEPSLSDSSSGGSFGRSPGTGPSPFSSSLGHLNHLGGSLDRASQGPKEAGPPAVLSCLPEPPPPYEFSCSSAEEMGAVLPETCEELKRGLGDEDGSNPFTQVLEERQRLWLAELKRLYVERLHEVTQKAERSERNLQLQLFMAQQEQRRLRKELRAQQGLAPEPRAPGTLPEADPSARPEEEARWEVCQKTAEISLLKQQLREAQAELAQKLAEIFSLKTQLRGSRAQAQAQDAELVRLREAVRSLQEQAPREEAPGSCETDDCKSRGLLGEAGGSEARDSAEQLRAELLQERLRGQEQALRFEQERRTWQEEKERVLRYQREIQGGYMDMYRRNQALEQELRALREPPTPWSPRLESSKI
UniProt B1AK53: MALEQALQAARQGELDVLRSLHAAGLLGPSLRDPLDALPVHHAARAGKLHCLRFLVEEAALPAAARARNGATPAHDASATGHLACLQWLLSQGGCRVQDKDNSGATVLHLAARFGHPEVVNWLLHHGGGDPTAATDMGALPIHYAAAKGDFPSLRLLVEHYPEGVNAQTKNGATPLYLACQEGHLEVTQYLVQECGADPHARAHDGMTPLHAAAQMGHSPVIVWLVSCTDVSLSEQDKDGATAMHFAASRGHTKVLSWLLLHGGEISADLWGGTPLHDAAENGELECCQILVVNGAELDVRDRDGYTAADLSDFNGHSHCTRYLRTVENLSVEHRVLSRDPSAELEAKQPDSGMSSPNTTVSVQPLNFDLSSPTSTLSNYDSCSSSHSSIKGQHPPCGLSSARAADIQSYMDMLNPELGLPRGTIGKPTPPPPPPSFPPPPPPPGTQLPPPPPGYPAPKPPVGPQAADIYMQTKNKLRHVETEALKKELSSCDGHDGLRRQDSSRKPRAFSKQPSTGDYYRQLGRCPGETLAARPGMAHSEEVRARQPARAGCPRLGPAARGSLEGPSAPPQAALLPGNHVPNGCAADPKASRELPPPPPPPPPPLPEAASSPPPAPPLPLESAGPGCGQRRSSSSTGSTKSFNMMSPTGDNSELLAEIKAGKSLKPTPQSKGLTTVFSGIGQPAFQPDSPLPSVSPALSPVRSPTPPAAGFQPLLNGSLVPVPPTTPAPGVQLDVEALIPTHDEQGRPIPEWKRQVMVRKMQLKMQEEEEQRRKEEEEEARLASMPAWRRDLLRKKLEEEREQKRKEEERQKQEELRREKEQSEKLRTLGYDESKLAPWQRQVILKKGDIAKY

This is one part of the list. Small differences around the control level are noise.

Compound in the assay: CN[C@@H]1C[C@H]2O[C@@](C)([C@@H]1OC)n1c3ccccc3c3c4c(c5c6ccccc6n2c5c31)C(=O)NC4 [staurosporine]
Briefly: log2 fold change of tryptic peptide abundance, ligand vs vehicle (limited proteolysis) (log2 ratio); higher = more trypsin-susceptible (destabilized). The conditions noted are these: ligand concentration: 20 uM; sample: K562 cleared lysate; digestion: 4 min, 22 C (HT-PELSA RT4min, Orbitrap Astral).
With “RIOK3 (peptide sequence: KHILVMSFIGHDQVPAPK, peptide start residue: 354) (UniProt O14730)”, the log2 fold change is -0.101.

In the case of “CEP290 (peptide sequence: MTDEYNR, peptide start residue: 253) (UniProt O15078)”, the log2 fold change was -0.511. With “UBFD1 (peptide sequence: IMVVGSTINDVLAVNTPK, peptide start residue: 150) (UniProt O14562)” the figure was -0.127; with “UniProt O14604 (peptide sequence: LKKTETQEK, peptide start residue: 18)”, 0.12; with “SCD (peptide sequence: GFFFSHVGWLLVR, peptide start residue: 176) (UniProt O00767)”, 0.455. To “TNFRSF10B (peptide sequence: DASVHTLLDALETLGER, peptide start residue: 396) (UniProt O14763)” belongs -0.476; to “UniProt O00193 (peptide sequence: ESHPHGVKR, peptide start residue: 6)”, 0.146; to “XPO1 (peptide sequence: LFEFMHETHDGVQDMACDTFIK, peptide start residue: 569) (UniProt O14980)”, 0.147.

Regarding “MDM4 (peptide sequence: ILHAAGAQGEMFTVK, peptide start residue: 36) (UniProt O15151)”, the log2 fold change was found to be 0.262. In the case of “YDJC (peptide sequence: RHSIPTGLHANLSEGRPVGPAR, peptide start residue: 55) (UniProt A8MPS7)”, the log2 fold change worked out at 0.665.

As for “UniProt A8MQ14 (peptide sequence: SFTAGSTLIQHQR, peptide start residue: 429)”, the log2 fold change stood at 0.834. With “RNASET2 (peptide sequence: ELDLNSVLLK, peptide start residue: 144) (UniProt O00584)”, the log2 fold change was -0.427. Regarding “KRIT1 (peptide sequence: EASLFIVPSVVK, peptide start residue: 107) (UniProt O00522)”, the log2 fold change stood at 0.292. To “PPP6C (peptide sequence: YLPENDLKR, peptide start residue: 18) (UniProt O00743)” belongs 0.201; to “UniProt C4AMC7 (peptide sequence: SQVQAIGEK, peptide start residue: 42)”, 0.495.

Regarding “PSMD12 (peptide sequence: EWDLLNENIMLLSK, peptide start residue: 79) (UniProt O00232)”, the log2 fold change came to 0.249. With “NDUFA4 (peptide sequence: FYSVNVDYSK, peptide start residue: 64) (UniProt O00483)” the figure was -0.0771; with “ZNF316 (peptide sequence: CAFCGAGFGR, peptide start residue: 431) (UniProt A6NFI3)”, -0.487. To “FANCG (peptide sequence: DTYFHLLQTLK, peptide start residue: 549) (UniProt O15287)” belongs 0.388; to “BTAF1 (peptide sequence: EQEAGVLAMDALHR, peptide start residue: 1481) (UniProt O14981)”, -0.208.

With “PIR (peptide sequence: GGRPGGFPDHPHR, peptide start residue: 47) (UniProt O00625)”, the log2 fold change was found to be 0.651.

On to “POLR1C (peptide sequence: CFSPGVIEVQEVQGK, peptide start residue: 256) (UniProt O15160)”, for which the log2 fold change is -0.297. To “SDCBP (peptide sequence: ITSIVKDSSAAR, peptide start residue: 218) (UniProt O00560)” belongs 0.566; to “UniProt A6NF01 (peptide sequence: IVPAHVPTPIQPTFGGATHSAFGLK, peptide start residue: 996)”, 0.0719. On to “SLC33A1 (peptide sequence: RPGNFSHSLDMK, peptide start residue: 15) (UniProt O00400)”, for which the log2 fold change is -0.268.

Turning to “N4BP3 (peptide sequence: APGTLPEADPSARPEEEAR, peptide start residue: 349) (UniProt O15049)”, the log2 fold change came to 0.302.

For “MEIS1 (peptide sequence: DHDDTASTR, peptide start residue: 216) (UniProt O00470)”, the log2 fold change was -0.834. In the case of “ESPN (peptide sequence: ALEQALQAAR, peptide start residue: 2) (UniProt B1AK53)”, the log2 fold change is 0.36.
